In the supplement of paper PMC10849652:
The list shows a part of the results.

Chains of the proteins cited; added tags and fusions are not shown. Lines headed by an entry give the natural chain unless they say otherwise; changes in a name come on top.
UniProt Q709C8: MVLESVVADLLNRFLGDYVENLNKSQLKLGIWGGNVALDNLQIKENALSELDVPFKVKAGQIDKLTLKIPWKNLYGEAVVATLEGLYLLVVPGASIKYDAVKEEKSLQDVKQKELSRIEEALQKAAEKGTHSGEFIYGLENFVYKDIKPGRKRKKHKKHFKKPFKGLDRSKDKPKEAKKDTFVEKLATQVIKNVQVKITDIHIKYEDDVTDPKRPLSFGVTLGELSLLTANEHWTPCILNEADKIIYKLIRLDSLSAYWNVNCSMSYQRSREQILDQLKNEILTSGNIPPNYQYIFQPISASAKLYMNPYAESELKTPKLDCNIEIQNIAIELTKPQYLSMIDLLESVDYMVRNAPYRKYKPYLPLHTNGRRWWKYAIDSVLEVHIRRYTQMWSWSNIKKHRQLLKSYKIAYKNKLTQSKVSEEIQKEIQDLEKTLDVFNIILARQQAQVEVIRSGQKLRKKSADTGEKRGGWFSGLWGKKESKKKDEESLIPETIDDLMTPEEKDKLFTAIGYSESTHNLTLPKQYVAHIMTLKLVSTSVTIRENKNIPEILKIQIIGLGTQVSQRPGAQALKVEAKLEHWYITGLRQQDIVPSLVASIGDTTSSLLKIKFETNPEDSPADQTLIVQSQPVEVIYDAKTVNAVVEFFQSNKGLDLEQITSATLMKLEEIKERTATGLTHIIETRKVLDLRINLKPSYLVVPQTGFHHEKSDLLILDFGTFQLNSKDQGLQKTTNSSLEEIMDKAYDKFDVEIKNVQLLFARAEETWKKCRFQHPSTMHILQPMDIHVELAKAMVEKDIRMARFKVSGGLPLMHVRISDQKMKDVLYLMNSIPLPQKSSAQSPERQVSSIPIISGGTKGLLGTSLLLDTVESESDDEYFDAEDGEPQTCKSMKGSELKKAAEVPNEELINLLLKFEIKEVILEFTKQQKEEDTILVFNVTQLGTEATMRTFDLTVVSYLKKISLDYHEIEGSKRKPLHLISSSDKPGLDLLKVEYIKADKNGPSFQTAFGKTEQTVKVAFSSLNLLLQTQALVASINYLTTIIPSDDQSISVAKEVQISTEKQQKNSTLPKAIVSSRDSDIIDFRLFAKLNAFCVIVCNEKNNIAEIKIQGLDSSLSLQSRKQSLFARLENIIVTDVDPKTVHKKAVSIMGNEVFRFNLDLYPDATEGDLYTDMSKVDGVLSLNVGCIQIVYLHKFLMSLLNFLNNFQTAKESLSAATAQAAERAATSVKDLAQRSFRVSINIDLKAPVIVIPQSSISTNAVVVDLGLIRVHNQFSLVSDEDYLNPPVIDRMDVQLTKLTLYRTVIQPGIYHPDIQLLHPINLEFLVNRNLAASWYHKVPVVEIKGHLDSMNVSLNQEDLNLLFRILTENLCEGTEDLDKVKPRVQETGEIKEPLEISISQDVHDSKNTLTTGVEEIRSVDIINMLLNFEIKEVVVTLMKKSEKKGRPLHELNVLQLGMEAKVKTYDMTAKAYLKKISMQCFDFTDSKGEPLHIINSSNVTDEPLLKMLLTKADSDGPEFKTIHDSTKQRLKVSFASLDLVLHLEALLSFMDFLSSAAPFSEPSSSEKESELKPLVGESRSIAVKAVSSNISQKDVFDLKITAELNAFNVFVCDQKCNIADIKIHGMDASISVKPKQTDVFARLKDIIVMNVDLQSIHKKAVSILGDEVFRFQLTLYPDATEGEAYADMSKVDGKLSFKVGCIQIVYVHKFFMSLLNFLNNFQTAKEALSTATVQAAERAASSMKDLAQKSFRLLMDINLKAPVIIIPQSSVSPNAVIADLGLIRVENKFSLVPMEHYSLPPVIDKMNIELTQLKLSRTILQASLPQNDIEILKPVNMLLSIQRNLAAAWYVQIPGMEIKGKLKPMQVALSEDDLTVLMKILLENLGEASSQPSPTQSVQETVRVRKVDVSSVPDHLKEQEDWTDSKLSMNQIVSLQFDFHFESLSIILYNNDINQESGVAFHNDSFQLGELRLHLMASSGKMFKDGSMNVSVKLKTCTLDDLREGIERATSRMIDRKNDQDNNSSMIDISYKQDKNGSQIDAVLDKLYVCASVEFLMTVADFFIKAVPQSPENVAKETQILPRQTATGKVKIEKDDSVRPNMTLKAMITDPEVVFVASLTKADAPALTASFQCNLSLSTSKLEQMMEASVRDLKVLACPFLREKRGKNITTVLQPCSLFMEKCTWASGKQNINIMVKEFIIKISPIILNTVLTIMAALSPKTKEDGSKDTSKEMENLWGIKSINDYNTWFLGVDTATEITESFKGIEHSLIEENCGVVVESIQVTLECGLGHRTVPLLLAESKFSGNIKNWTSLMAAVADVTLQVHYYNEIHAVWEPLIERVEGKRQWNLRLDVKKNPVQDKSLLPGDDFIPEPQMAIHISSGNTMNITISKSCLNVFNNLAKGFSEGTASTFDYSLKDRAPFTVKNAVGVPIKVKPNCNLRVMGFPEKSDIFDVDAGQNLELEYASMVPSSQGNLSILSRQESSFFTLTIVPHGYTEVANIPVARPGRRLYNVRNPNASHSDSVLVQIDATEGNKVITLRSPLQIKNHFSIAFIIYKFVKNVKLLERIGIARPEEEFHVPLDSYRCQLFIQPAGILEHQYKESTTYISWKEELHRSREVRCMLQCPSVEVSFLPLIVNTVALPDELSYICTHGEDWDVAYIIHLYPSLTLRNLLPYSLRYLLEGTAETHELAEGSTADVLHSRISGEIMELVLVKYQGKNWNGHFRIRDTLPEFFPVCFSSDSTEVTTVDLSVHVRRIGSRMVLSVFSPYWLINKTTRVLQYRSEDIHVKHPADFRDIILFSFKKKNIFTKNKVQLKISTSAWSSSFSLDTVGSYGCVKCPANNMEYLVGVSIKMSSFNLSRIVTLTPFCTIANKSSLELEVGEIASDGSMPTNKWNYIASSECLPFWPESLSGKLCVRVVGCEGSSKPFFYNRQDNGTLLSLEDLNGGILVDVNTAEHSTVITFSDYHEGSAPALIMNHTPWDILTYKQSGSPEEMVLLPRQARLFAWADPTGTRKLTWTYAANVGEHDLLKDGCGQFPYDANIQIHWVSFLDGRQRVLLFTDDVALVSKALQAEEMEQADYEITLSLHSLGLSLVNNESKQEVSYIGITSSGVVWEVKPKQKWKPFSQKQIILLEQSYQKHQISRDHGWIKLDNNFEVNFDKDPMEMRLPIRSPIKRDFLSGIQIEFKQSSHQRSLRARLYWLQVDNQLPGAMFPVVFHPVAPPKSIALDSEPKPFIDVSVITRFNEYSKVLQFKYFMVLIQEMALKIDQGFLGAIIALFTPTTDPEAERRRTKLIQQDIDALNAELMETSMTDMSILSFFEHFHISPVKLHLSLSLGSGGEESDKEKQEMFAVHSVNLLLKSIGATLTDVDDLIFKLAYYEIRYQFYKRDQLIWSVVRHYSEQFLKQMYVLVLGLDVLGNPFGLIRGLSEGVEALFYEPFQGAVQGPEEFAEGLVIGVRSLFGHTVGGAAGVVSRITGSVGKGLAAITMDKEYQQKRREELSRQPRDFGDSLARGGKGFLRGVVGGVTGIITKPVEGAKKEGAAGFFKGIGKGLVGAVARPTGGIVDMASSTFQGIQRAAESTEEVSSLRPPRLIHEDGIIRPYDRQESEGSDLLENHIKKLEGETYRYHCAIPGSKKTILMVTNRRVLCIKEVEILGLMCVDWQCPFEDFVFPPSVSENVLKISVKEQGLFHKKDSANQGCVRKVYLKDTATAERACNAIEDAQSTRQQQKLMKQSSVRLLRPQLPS
UniProt O00308: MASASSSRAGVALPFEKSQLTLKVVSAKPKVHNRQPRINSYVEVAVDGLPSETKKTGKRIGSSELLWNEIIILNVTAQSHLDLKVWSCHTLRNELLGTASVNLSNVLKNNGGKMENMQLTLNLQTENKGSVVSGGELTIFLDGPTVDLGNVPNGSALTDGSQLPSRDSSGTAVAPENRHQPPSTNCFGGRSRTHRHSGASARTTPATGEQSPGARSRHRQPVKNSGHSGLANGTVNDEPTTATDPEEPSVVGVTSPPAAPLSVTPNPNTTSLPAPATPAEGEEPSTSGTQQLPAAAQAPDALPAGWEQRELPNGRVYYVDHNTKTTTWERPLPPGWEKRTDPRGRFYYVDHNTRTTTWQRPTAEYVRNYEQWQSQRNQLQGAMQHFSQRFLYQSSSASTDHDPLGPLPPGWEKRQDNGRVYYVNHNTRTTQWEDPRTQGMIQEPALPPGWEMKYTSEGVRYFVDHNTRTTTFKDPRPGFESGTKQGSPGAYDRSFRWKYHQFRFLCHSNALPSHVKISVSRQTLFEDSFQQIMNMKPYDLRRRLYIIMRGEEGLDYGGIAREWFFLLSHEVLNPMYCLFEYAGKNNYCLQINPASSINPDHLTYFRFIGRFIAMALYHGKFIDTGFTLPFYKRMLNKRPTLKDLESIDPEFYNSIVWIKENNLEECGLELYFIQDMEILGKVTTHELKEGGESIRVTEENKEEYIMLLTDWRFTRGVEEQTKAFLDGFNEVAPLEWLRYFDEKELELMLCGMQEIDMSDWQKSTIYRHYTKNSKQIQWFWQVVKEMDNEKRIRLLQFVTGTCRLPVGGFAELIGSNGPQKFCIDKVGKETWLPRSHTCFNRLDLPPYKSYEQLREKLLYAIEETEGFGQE
UniProt O15213: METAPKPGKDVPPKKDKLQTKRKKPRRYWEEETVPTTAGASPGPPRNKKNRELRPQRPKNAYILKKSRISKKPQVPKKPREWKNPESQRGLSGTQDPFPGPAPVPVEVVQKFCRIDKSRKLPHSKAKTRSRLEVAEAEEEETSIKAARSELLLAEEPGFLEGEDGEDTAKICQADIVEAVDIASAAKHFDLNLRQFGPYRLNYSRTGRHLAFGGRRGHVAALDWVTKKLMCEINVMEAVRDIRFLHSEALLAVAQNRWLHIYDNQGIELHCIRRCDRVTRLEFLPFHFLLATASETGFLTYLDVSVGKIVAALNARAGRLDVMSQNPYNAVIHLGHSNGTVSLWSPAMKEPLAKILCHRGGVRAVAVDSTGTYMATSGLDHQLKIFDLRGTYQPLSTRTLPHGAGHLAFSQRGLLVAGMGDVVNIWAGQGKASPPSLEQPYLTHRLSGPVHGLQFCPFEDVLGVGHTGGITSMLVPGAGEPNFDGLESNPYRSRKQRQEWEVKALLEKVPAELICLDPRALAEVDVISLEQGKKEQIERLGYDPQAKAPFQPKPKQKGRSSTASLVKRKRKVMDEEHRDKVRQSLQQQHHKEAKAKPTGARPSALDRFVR
UniProt Q9BRG1: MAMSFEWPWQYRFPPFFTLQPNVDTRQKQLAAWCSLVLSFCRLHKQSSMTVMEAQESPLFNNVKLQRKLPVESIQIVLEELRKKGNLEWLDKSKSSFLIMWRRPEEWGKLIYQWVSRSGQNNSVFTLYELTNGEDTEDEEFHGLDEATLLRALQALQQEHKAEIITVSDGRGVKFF
UniProt Q15007: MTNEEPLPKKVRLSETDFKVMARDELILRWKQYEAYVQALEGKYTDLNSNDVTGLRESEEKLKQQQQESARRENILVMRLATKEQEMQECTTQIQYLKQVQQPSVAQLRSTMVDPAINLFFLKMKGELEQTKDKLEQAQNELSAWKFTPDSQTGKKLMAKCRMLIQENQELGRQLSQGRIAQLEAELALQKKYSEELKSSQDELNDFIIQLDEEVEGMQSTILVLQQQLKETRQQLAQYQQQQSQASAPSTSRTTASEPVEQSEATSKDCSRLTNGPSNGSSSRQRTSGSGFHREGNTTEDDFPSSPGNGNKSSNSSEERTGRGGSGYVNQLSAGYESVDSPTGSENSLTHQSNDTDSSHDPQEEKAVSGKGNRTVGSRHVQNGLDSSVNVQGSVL
UniProt O75351, whole entry, looked up: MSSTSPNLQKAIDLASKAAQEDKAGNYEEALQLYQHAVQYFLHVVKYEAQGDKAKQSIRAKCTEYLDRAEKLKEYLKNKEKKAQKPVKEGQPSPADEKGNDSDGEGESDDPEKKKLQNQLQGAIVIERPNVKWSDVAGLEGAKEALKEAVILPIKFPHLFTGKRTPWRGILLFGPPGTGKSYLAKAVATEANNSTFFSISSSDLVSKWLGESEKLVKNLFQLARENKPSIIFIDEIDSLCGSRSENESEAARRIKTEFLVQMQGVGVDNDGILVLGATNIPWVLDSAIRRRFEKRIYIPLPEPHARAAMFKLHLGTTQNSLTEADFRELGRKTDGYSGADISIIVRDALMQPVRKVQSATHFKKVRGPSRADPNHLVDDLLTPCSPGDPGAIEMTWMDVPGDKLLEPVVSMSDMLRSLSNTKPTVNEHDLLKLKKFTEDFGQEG
UniProt Q5T750: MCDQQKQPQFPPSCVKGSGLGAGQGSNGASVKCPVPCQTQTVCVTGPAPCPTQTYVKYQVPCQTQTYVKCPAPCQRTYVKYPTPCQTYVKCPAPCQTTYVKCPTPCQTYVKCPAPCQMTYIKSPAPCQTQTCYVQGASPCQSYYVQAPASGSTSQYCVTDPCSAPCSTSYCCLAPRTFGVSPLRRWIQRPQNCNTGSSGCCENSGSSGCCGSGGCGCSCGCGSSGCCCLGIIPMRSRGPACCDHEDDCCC

Assays:
Assay in all cases: log2 fold change, soluble protein after heating vs DMSO (PISA); higher = thermal stabilisation; K562 lysate, 10 uM; active = over 0.2 and 3.5 SD of the protein, either way, in both replicates (recomputed)
[1] = compound: NCC(=O)Nc1ccc(-n2nc(C(F)(F)F)cc2-c2ccc3c(ccc4ccccc43)c2)cc1
Summary of the method: (§1)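 A 30 min treatment with 10 μM compound was applied to crude K562 extract at 1 mg/mL protein in PBS pH 7.4 with 1 mM MgCl2. Heating for 3 min spanned 48°C-58°C, after which aliquots were pooled, adjusted to 0.5% NP-40 at 4°C and spun at 21,000xg for 90 min. TMTpro 16plex LC-MS/MS of the supernatant, with channel sums equalised, gave values recorded as log-two fold change in thermal stability against solvent controls, from duplicates.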

vorinostat = compound: O=C(CCCCCCC(=O)Nc1ccccc1)NO [vorinostat]
Summary of the method: as §1

silmitasertib = compound: O=C(O)c1ccc2c(c1)nc(Nc1cccc(Cl)c1)c1ccncc12 [silmitasertib]
Summary of the method: as §1

[2] = compound: O=C1NC(=O)C(c2cnc3ccccn23)=C1c1cn2c3c(cc(F)cc13)CN(C(=O)N1CCCCC1)CC2
Summary of the method: as §1

entospletinib = compound: c1cn2cc(-c3ccc4cn[nH]c4c3)nc(Nc3ccc(N4CCOCC4)cc3)c2n1 [entospletinib]
Summary of the method: as §1

VPS13C (UniProt Q709C8)
log2 fold change [1]: inactive: 0.005
log2 fold change (vorinostat): inactive: 0.062
log2 fold change (silmitasertib): inactive: -0.033
log2 fold change [2]: inactive: 0.027
log2 fold change (entospletinib): inactive: -0.051

WWP2 (UniProt O00308)
log2 fold change [1]: inactive: 0.002
log2 fold change (vorinostat): inactive: -0.143
log2 fold change (silmitasertib): inactive: 0.016
log2 fold change [2]: inactive: 0.002
log2 fold change (entospletinib): inactive: 0.047

WASH2P (UniProt Q6VEQ5)
log2 fold change [1]: inactive: -0.035
log2 fold change (vorinostat): inactive: 0.067
log2 fold change (silmitasertib): inactive: 0.027
log2 fold change [2]: inactive: -0.014
log2 fold change (entospletinib): inactive: 0.014

WDR46 (UniProt O15213)
log2 fold change [1]: inactive: -0.002
log2 fold change (vorinostat): inactive: 0.032
log2 fold change (silmitasertib): inactive: 0.053
log2 fold change [2]: inactive: -0.023
log2 fold change (entospletinib): inactive: -0.113

VPS51 (UniProt Q9UID3)
log2 fold change [1]: inactive: -0.003
log2 fold change (vorinostat): inactive: -0.24
log2 fold change (silmitasertib): inactive: 0.025
log2 fold change [2]: inactive: -0.018
log2 fold change (entospletinib): inactive: -0.015

VPS25 (UniProt Q9BRG1)
log2 fold change [1]: inactive: -0.045
log2 fold change (vorinostat): inactive: 0.056
log2 fold change (silmitasertib): inactive: -0.023
log2 fold change [2]: inactive: 0.003
log2 fold change (entospletinib): inactive: 0.001

WTAP (UniProt Q15007)
log2 fold change [1]: inactive: 0.032
log2 fold change (vorinostat): inactive: -0.043
log2 fold change (silmitasertib): inactive: -0.002
log2 fold change [2]: inactive: -0.003
log2 fold change (entospletinib): inactive: -0.008

VPS29 isoform 2 (UniProt Q9UBQ0)
log2 fold change [1]: inactive: 0
log2 fold change (vorinostat): inactive: 0.142
log2 fold change (silmitasertib): inactive: 0.001
log2 fold change [2]: inactive: -0.001
log2 fold change (entospletinib): inactive: -0.006

WDR53 (UniProt Q7Z5U6)
log2 fold change [1]: inactive: -0.104
log2 fold change (vorinostat): inactive: -0.129
log2 fold change (silmitasertib): inactive: 0.022
log2 fold change [2]: inactive: 0.026
log2 fold change (entospletinib): inactive: 0.036

WDR11 (UniProt Q9BZH6)
log2 fold change [1]: inactive: 0.069
log2 fold change (vorinostat): inactive: -0.098
log2 fold change (silmitasertib): inactive: 0.062
log2 fold change [2]: inactive: -0.054
log2 fold change (entospletinib): inactive: 0.008

VPS41 (UniProt P49754)
log2 fold change [1]: inactive: -0.025
log2 fold change (vorinostat): active: -0.471
log2 fold change (silmitasertib): inactive: 0.004
log2 fold change [2]: inactive: -0.018
log2 fold change (entospletinib): inactive: 0.007

VPS26C (UniProt O14972)
log2 fold change [1]: inactive: 0.093
log2 fold change (vorinostat): inactive: -0.099
log2 fold change (silmitasertib): inactive: 0.03
log2 fold change [2]: inactive: 0.011
log2 fold change (entospletinib): inactive: -0.048

VPS4B (UniProt O75351)
log2 fold change [1]: inactive: 0.03
log2 fold change (vorinostat): inactive: -0.182
log2 fold change (silmitasertib): inactive: 0.034
log2 fold change [2]: inactive: -0.023
log2 fold change (entospletinib): inactive: 0.034

XP32 (UniProt Q5T750)
log2 fold change [2]: inactive: 0.347

XK (UniProt P51811)
log2 fold change (vorinostat): inactive: 0.052
log2 fold change (silmitasertib): inactive: 0.008
log2 fold change (entospletinib): inactive: -0.053
